{"source": "the supplement of paper PMC8728848", "test_in_all_cases": "glycan array binding signal (z-score within array); higher = stronger binding", "conditions_in_all_cases": "glycan notation: IUPAC condensed, linker removed", "key": {"[1]": {"biological_target": "GlcNAc(b1-3)Gal(b1-4)GlcNAc(b1-3)Gal(b1-4)GlcNAc(b1-3)GalNAc", "outline": "(§1)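 The binding signal is a Z-score computed within each array and averaged over linkers. Arrays of the same protein sequence at different concentrations or buffers were also averaged together. Data originate from 3228 arrays in the Consortium for Functional Glycomics database, kept only where the protein sequence was available.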"}, "[2]": {"biological_target": "GlcNAc(b1-3)Gal(b1-4)GlcNAc(b1-3)GalNAc", "outline": "as §1"}, "[3]": {"biological_target": "GlcNAc(b1-3)Gal(b1-4)GlcNAc(b1-3)[GlcNAc(b1-3)Gal(b1-4)GlcNAc(b1-3)]GalNAc", "outline": "as §1"}, "[4]": {"biological_target": "GlcNAc(b1-3)Gal(b1-4)GlcNAc(b1-6)[Gal(b1-3)]GalNAc", "outline": "as §1"}, "[5]": {"biological_target": "GlcNAc(b1-3)Gal(b1-4)GlcNAc(b1-6)[GlcNAc(b1-3)Gal(b1-3)]GalNAc", "outline": "as §1"}, "[6]": {"biological_target": "GlcNAc(b1-3)Gal(b1-4)GlcNAc(b1-6)[GlcNAc(b1-3)]Gal(b1-4)GlcNAc", "outline": "as §1"}, "GlcNAc(b1-3)GalNAc": {"biological_target": "GlcNAc(b1-3)GalNAc", "outline": "as §1"}, "GlcNAc(b1-3)Man": {"biological_target": "GlcNAc(b1-3)Man", "outline": "as §1"}, "[7]": {"biological_target": "GlcNAc(b1-3)[GlcNAc(b1-4)][GlcNAc(b1-6)]GlcNAc", "outline": "as §1"}, "[8]": {"biological_target": "GlcNAc(b1-3)[GlcNAc(b1-6)]Gal(b1-4)GlcNAc", "outline": "as §1"}, "[9]": {"biological_target": "GlcNAc(b1-3)[GlcNAc(b1-6)]GalNAc", "outline": "as §1"}, "[10]": {"biological_target": "GlcNAc(b1-4)Gal(b1-4)GlcNAc", "outline": "as §1"}, "GlcNAc(b1-4)GlcNAc": {"biological_target": "GlcNAc(b1-4)GlcNAc", "outline": "as §1"}, "[11]": {"biological_target": "GlcNAc(b1-4)GlcNAc(b1-4)GlcNAc", "outline": "as §1"}, "[12]": {"biological_target": "GlcNAc(b1-4)GlcNAc(b1-4)GlcNAc(b1-4)GlcNAc(b1-4)GlcNAc", "outline": "as §1"}, "[13]": {"biological_target": "GlcNAc(b1-4)GlcNAc(b1-4)GlcNAc(b1-4)GlcNAc(b1-4)GlcNAc(b1-4)GlcNAc", "outline": "as §1"}, "[14]": {"biological_target": "GlcNAc(b1-4)[GlcNAc(b1-6)]GalNAc", "outline": "as §1"}, "[15]": {"biological_target": "GlcNAc(b1-6)Gal(b1-4)GlcNAc", "outline": "as §1"}, "GlcNAc(b1-6)GalNAc": {"biological_target": "GlcNAc(b1-6)GalNAc", "outline": "as §1"}, "[16]": {"biological_target": "GlcNAc6S(b1-3)Gal(b1-4)GlcNAc", "outline": "as §1"}, "Kdn(a2-3)Gal(b1-3)GalNAc": {"biological_target": "Kdn(a2-3)Gal(b1-3)GalNAc", "outline": "as §1"}, "Kdn(a2-3)Gal(b1-3)GlcNAc": {"biological_target": "Kdn(a2-3)Gal(b1-3)GlcNAc", "outline": "as §1"}, "Kdn(a2-3)Gal(b1-4)Glc": {"biological_target": "Kdn(a2-3)Gal(b1-4)Glc", "outline": "as §1"}, "Kdn(a2-3)Gal(b1-4)GlcNAc": {"biological_target": "Kdn(a2-3)Gal(b1-4)GlcNAc", "outline": "as §1"}, "[17]": {"biological_target": "Kdn(a2-3)Gal(b1-4)[Fuc(a1-3)]GlcNAc", "outline": "as §1"}, "Kdn(a2-6)Gal(b1-4)GlcNAc": {"biological_target": "Kdn(a2-6)Gal(b1-4)GlcNAc", "outline": "as §1"}, "[18]": {"biological_target": "Man(a1-2)Man(a1-2)Man(a1-3)Man", "outline": "as §1"}, "[19]": {"biological_target": "Man(a1-2)Man(a1-2)Man(a1-6)[Man(a1-3)]Man", "outline": "as §1"}, "Man(a1-2)Man(a1-3)Man": {"biological_target": "Man(a1-2)Man(a1-3)Man", "outline": "as §1"}, "[20]": {"biological_target": "Man(a1-2)Man(a1-3)[Man(a1-2)Man(a1-6)]Man", "outline": "as §1"}}, "note": "The list shows a part of the results.", "data": [{"binder": "GS7807I-bvu-563-22-563 (Bacteroides vulgatus) (protein) IFSSCTDDFEKLNTSNIQVDPADLPFAAQCTEPMTYCYPPQQNMFQFWTNLTIDLYGGYFMTPNGNFTNGDMGENRGHSGGMYENYYLHIFNNTRRIIAQCDASGERGLSGVMRIVQAYGTLMTTDAYGPIPYSSILSGENEVYFEFDSQKDLYKAMLEDLSTAITDISAMGADEIAKLKSFDCWCNGDKDLWVKIANTMKLRMALRLSKRETEAGNAGMNLKAIATEAAQNTLATVNKDILIDKSLENEMWLMFNWGDCGFNANLVTIMSGTKDPRQPLYMTLNTGDIKNEAGTTTVAANSQYLGIRFASGLPAKPNSWGNFSGWIQGNNGSSYSMPLPIMKAAEAYFLLAEAKLRWDIGSESVKNLYENGIRVSMTNELAYRGAYAGIKEYPEGAVDAYINGTSTQIDYTDPIKAELSTPAVNKLSVKWDESASNEEKLERIITQKWLALFPLSTEGWAEQRRTGYPRFFPAFVNESNGAVNTEEGVRRVIYSSQAYDANAKGVEGGIKLLDEENSSKFGISGDKGGTHLWWDNADKGNF", "values": [{"measurement": "glycan array binding signal (z-score)", "setting": "[1]", "result": -0.202}, {"measurement": "glycan array binding signal (z-score)", "setting": "[2]", "result": 0.129}, {"measurement": "glycan array binding signal (z-score)", "setting": "[3]", "result": 0.595}, {"measurement": "glycan array binding signal (z-score)", "setting": "[4]", "result": -0.16}, {"measurement": "glycan array binding signal (z-score)", "setting": "[5]", "result": 0.348}, {"measurement": "glycan array binding signal (z-score)", "setting": "[6]", "result": -0.101}, {"measurement": "glycan array binding signal (z-score)", "setting": "GlcNAc(b1-3)GalNAc", "result": -0.124}, {"measurement": "glycan array binding signal (z-score)", "setting": "GlcNAc(b1-3)Man", "result": -0.754}, {"measurement": "glycan array binding signal (z-score)", "setting": "[7]", "result": -0.373}, {"measurement": "glycan array binding signal (z-score)", "setting": "[8]", "result": -0.01}, {"measurement": "glycan array binding signal (z-score)", "setting": "[9]", "result": -0.559}, {"measurement": "glycan array binding signal (z-score)", "setting": "[10]", "result": 0.003}, {"measurement": "glycan array binding signal (z-score)", "setting": "GlcNAc(b1-4)GlcNAc", "result": -0.709}, {"measurement": "glycan array binding signal (z-score)", "setting": "[11]", "result": 0.292}, {"measurement": "glycan array binding signal (z-score)", "setting": "[12]", "result": -0.951}, {"measurement": "glycan array binding signal (z-score)", "setting": "[13]", "result": -0.905}, {"measurement": "glycan array binding signal (z-score)", "setting": "[14]", "result": 0.44}, {"measurement": "glycan array binding signal (z-score)", "setting": "[15]", "result": -0.053}, {"measurement": "glycan array binding signal (z-score)", "setting": "GlcNAc(b1-6)GalNAc", "result": -0.136}, {"measurement": "glycan array binding signal (z-score)", "setting": "[16]", "result": -0.815}, {"measurement": "glycan array binding signal (z-score)", "setting": "Kdn(a2-3)Gal(b1-3)GalNAc", "result": -0.021}, {"measurement": "glycan array binding signal (z-score)", "setting": "Kdn(a2-3)Gal(b1-3)GlcNAc", "result": 0.242}, {"measurement": "glycan array binding signal (z-score)", "setting": "Kdn(a2-3)Gal(b1-4)Glc", "result": -0.657}, {"measurement": "glycan array binding signal (z-score)", "setting": "Kdn(a2-3)Gal(b1-4)GlcNAc", "result": 0.192}, {"measurement": "glycan array binding signal (z-score)", "setting": "[17]", "result": -0.492}, {"measurement": "glycan array binding signal (z-score)", "setting": "Kdn(a2-6)Gal(b1-4)GlcNAc", "result": -0.077}, {"measurement": "glycan array binding signal (z-score)", "setting": "[18]", "result": 0.28}, {"measurement": "glycan array binding signal (z-score)", "setting": "[19]", "result": -0.59}, {"measurement": "glycan array binding signal (z-score)", "setting": "Man(a1-2)Man(a1-3)Man", "result": 1.83}, {"measurement": "glycan array binding signal (z-score)", "setting": "[20]", "result": -0.421}]}]}
